In patent US20250134907A1, “FUSED DIAZEPINES AS AGONISTS OF THE INSULIN-LIKE 3 (INSL3) PEPTIDE RECEPTOR RXFP2 AND METHODS OF USE THEREOF” (The United States of America,as represented by the …, priority 2022, published 2025):
At least one structure is not confirmed: it was looked up by name or label, or the drawing left a doubt.

Sequences of proteins named here, by UniProt entry; tags and fusion partners are left off. A change or cut given only in a name is not applied to a line headed by its entry.
UniProt Q91ZZ5: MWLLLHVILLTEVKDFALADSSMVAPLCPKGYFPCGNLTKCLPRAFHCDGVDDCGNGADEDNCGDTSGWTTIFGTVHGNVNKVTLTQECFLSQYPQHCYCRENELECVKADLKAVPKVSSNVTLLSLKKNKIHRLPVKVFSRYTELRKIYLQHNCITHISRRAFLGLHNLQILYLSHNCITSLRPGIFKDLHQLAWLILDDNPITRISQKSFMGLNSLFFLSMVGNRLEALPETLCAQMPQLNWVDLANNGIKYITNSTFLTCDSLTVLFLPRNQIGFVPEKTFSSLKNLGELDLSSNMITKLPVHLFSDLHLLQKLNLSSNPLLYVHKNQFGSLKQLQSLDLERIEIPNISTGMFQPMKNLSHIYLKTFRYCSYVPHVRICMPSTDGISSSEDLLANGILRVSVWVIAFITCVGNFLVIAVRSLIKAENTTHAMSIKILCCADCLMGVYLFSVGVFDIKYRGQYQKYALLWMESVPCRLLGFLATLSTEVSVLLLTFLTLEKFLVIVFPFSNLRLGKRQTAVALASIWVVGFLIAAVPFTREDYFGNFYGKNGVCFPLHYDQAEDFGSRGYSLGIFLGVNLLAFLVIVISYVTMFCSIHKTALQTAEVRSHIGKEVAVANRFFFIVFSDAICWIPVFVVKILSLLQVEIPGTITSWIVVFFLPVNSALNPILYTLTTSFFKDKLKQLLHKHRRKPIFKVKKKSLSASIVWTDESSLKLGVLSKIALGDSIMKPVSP
UniProt Q8WXD0: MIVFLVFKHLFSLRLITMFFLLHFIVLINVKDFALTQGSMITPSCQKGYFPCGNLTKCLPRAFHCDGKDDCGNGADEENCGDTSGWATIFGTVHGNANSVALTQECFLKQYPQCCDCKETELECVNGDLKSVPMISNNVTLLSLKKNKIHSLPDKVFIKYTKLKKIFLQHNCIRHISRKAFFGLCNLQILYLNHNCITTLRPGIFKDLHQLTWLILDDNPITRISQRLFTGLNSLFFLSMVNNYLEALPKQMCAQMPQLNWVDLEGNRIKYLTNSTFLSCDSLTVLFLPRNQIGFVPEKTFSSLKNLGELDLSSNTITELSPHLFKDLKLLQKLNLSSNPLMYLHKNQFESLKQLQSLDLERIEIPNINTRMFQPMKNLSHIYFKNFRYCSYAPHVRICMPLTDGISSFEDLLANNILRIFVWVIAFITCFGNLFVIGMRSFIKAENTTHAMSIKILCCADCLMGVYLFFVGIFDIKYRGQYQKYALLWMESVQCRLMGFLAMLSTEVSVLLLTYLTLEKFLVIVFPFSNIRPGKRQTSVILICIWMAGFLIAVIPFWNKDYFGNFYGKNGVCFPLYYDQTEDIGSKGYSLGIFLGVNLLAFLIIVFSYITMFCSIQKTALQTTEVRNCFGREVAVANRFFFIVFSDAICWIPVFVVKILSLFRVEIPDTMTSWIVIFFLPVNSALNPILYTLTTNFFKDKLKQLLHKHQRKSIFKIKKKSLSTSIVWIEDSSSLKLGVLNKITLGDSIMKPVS

Tests used:
[1] = biological target: T1, mouse RXFP2 (Mus musculus, UniProt Q91ZZ5); assay: Luciferase cAMP assay in HEK-CRE-Luc cells transiently transfected with mouse RXFP2; type: cell-based; conditions: 10 μM-[…], compared with human RXFP2 response
T1 construct: expressed in transfected cells; host or cells: HEK-CRE-Luc (transient, Lipofectamine2000)
Procedure: It was of interest if the RXFP2 agonists of formula (I) activate the mouse RXFP2 receptor. HEK-CRE-Luc cells transiently transfected with mouse RXFP2 were used to test agonist activity by measuring induction of cAMP. For this assay, cells were seeded in 6-well flat-bottom clear plates at 0.6 million cells/well in 2 mL/well of growth medium (DMEM, 10% FBS, 1× Pen/Strep) and allowed to attach overnight at 37° C., 5% CO2. The next morning, cells were transfected with 2 μg of plasmid (human or mouse RXFP2) and 6 μL of Lipofectamine2000 (Invitrogen, Waltham, MA) in a total volume of 200 μl/well OPTI-MEM™ I (Thermo Fisher, Waltham, MA) reduced serum medium and incubated an additional 24 hours. The transfected cells were then harvested and seeded in 96-well flat-bottom opaque plates at 30,000 cells/well in 60 μL/well of serum-free DMEM medium and incubated overnight to attach. The next morning, cells were treated with 1 μL/well of compound (10 μM-1.2 nM), 2 μM forskolin, or DMSO vehicle, and with 4 μL of positive control INSL3 (100-0.01 nM) (Phoenix Pharmaceuticals, Burlingame, CA) or vehicle serum-free DMEM. […] Plates were incubated for 40 minutes at room temperature protected from light, and the signal was read on a CLARIOstar plate reader (BMG Labtech, Germany). […]

[2] = test system: primary HCO cells; assay: OsteoImage mineralization assay in primary HCO cells; type: cell-based, human; conditions: 5 μM, 14 days
Procedure: The biological activity of the RXFP2 agonists was tested in primary HCO cells (ScienCell Research Laboratories, San Diego, CA) by measuring their ability to induce osteoblast mineralization. A fluorescent-based assay (OSTEOIMAGE™ Mineralization Assay, Lonza, Switzerland) was used that measures hydroxyapatite, which is the main mineral component of bone. For this assay, HCO cells were seeded in 0.1% gelatin-coated 96 well black-walled flat-bottom clear plates at 7,000 cells/well in 100 μL/well of growth medium (DMEM, 10% FBS, 1× Pen/Strep) and allowed to attach overnight at 37° C. and 5% CO2. The next day, growth medium was changed to 100 μL/well of mineralization medium (growth medium+10 mM β-glycerophosphate, 50 μg/ml ascorbic acid, 10 nM dexamethasone), along with the respective treatments. Cells were treated with 1 μL/well of compound (1, 3, or 5 μM) or vehicle (serum-free DMEM, 0.05% DMSO). Medium and treatments were replaced every 2-3 days and cells were incubated at 37° C. and 5% CO2 for 14 days. Hydroxyapatite deposits were evaluated using the OSTEOIMAGE™ Mineralization Assay (Lonza, Switzerland). […] Mineralization was quantified using a CLARIOstar plate reader (BMG Labtech, Germany) and representative images of the hydroxyapatite bone-like nodules were captured using a fluorescence microscope (Nikon Eclipse TS100 attached to an Olympus DP70 camera). […]

[3] = test system: gubernaculum of female embryos; assay: Gubernaculum development in female embryos of treated pregnant mice; type: in vivo, C57BL/6J mice; conditions: 30 mg/kg intraperitoneal to pregnant females, embryonic day 12.5 to 17.5
Text: The role of INSL3 and RXFP2 in gubernaculum development for the initial transabdominal descent of the testis during embryogenesis has been widely characterized in Insl3^-/- and Rxfp2^-/- mouse models of cryptorchidism. […] The gubernaculum is composed of the gubernacular bulb and cord, and it has begun invagination into the abdominal wall in preparation for the inguinoscrotal stage of testicular descent, which will finalize after birth. […] The hypothesis for our experiment is that by injecting pregnant females with the RXFP2 agonists during this embryonic development window, gubemaculum development could be induced in female embryos, which has been previously shown in female embryos overexpressing INSL3. […] For this assay, whole embryos were fixed in 10% formaldehyde for 24 hours. Afterwards, embryos were washed twice with PBS for 1 hour, followed by 3 consecutive washes with increasing concentrations of ethanol (30%, 50% and 70%) for 30 minutes. Fixed embryos were prepared for histology using an automatic tissue processor (Leica TP1020, Leica Biosystems, Germany), embedded in paraffin wax, and 5-7 μm sagittal serial sections were cut using an automated rotary microtome (Leica RM2255, Leica Biosystems, Germany). […] At least 4 embryos were analyzed per treatment group.

[4] = biological target: T2, RXFP2 (Homo sapiens, UniProt Q8WXD0); assay: Luciferase cAMP assay in HEK-CRE-Luc-RXFP2 cells; type: cell-based
T2 construct: expressed in transfected cells
Procedure: A confirmatory cAMP assay was done to eliminate false positives using a HEK293T-CRE-Luc cell line stably transfected with RXFP2 (HEK-CRE-Luc-RXFP2), as this cell line expresses luciferase under the control of the cAMP response element (CRE). Activation of the RXFP2 receptor increases intracellular cAMP levels, inducing luciferase transcription in the nucleus. Thus, luciferase activity in these cells is proportional to cAMP accumulation. For this assay, cells were seeded in 96-well flat-bottom opaque plates at 20,000 cells/well in 60 μL/well of serum-free DMEM medium and allowed to attach overnight at 37° C., 5% CO2. The next morning, cells were treated with 1 μL/well of compound (25 μM-0.21 nM), 1 μM forskolin, or DMSO vehicle. Cells were also treated with 4 μL of INSL3 (100-0.01 nM) (Phoenix Pharmaceuticals, Burlingame, CA) or vehicle serum-free DMEM. Cells were incubated with the treatments for 3 hours at 37° C., 5% CO2, then rested 30 minutes at room temperature for equilibration, after which 65 μL/well of substrate AMPLITE™ Luciferase Reporter Gene Assay Kit (AAT Bioquest, Sunnyvale, CA) was added. Plates were incubated for 40 minutes at room temperature protected from light, and then luciferase output was read on a CLARIOstar plate reader (BMG Labtech, Germany). […]

[5] = biological target: T3, RXFP1 (Homo sapiens, UniProt Q9HBX9); assay: HTRF cAMP counter-screen in HEK-RXFP1 cells; type: cell-based; conditions: compound 10 μM-[…], IBMX 200 μM
T3 construct: expressed in transfected cells
T3 sequence (Q9HBX9 1-757): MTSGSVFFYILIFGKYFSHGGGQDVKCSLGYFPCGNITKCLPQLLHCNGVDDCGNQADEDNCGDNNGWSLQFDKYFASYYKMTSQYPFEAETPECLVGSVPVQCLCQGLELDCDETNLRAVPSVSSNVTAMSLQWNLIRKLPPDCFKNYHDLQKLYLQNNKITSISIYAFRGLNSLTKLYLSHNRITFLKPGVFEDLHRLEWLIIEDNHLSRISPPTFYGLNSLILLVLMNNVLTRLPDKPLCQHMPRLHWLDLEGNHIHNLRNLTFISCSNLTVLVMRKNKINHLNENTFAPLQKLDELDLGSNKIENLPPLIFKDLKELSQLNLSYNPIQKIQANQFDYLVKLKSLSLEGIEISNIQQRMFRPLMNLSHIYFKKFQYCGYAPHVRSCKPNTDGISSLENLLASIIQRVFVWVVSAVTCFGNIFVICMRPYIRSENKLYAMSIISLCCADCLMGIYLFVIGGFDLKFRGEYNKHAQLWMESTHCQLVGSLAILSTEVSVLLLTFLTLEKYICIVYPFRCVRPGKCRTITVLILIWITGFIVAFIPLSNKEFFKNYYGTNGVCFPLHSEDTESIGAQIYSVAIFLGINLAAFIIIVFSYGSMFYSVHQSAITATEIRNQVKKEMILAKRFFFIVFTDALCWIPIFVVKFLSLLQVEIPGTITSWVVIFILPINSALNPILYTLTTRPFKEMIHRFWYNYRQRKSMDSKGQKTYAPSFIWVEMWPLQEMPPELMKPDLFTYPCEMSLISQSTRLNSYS
Text: HEK293T cells stably transfected with RXFP1 (HEK-RXFP1) were used to test compound specificity towards the RXFP2 receptor using the HTRF Gs dynamic cAMP assay kit (PerkinElmer, Waltham, MA). This is a competitive immunoassay where a time-resolved fluorescence resonance energy (TR-FRET) signal is produced when exogenous d2-labeled cAMP (acceptor) binds to europium cryptate-conjugated anti-cAMP antibody (donor). No signal is produced when endogenous cAMP binds to the antibody. Thus, the TR-FRET signal is inversely proportional to the concentration of cAMP produced by the cells. The HTRF cAMP assay was carried out in the presence of isobutylmethylxanthine phosphodiesterase inhibitor (IBMX) at 200 μM to amplify the cAMP signal. For this assay, cells were seeded in 96-well flat-bottom opaque plates at 30,000 cells/well in 60 μL/well of serum-free DMEM medium and allowed to attach overnight at 37° C., 5% CO2. The next morning, cells were treated with 1 μL/well of compound (10 μM-1.2 nM), 1 μM forskolin, or DMSO vehicle. Cells were also treated with 4 μL of 10 nM Relaxin2 (Peprotech, Cranbury, NJ) as a positive control or vehicle (serum-free DMEM+IBMX). […] Cells were incubated for 1 hour at room temperature, and then the signal was read on a CLARIOstar plate reader (BMG Labtech, Germany). […]

Cc1cc(-c2ccc3c(c2)C(=O)N2CCN(C(=O)COc4ccc(OC(F)(F)F)cc4Br)C[C@H]2C(=O)N3)cc(C(F)(F)F)c1 [Example 153, (S)-2-(2-(2-bromo-4-(trifluoromethoxy)phenoxy)acetyl)-8-(3-methyl-5-(trifluoromethyl)phenyl)-1,3,4,12a-tetrahydrobenzo[e]pyrazino[1,2-a][1,4]diazepine-6,12 (2H, 11H)-dione]
mouse RXFP2 activation (cAMP, luciferase) [1]: activate the mouse RXFP2 receptor at levels comparable to human RXFP2 activation | mineralization (hydroxyapatite) vs. DMSO vehicle [2]: significant increase | gubernaculum morphology in embryonic day 18.5 female embryos [3]: male-like invagination of the gubemaculum | RXFP2 agonist activity [4]: potent RXFP2 agonists | RXFP1 cAMP response (activation of RXFP1) [5]: do not activate
